No constants are given. Whether binding was seen depends on the method and setting. For some of these results: Binding seen in cells or lysates may run through a third protein. Some entries that bind do so weakly or less than the wild type.
How the values were obtained:
[1] = target: C-terminal domain of STAT3 (476-770) in pFN11A (BIND) vector (human) (UniProt P40763); test: two-hybrid; CheckMate/Flexi Vector Mammalian Two-Hybrid System in 293T cells; STAT3 in pFN11A (BIND), Anxa2 in pFN10A (ACT), pGL4.31 reporter; relative Luc/Ren after 48 h
[2] = target: full length STAT3 in pFN11A (BIND) vector (human) (UniProt P40763); test: as above
[3] = target: Flag-tagged STAT3 N-terminus fragment 1-475aa (human) (UniProt P40763); test: co-IP; HEK293T co-transfected with Flag-tagged STAT3 and GFP-tagged Anxa2 constructs, 48 h; lysates incubated with anti-Flag beads at 4°C overnight; blots with anti-Flag or anti-GFP
[4] = target: Flag-tagged STAT3 C-terminus fragment 476-770aa (human) (UniProt P40763); test: as above
[5] = target: N-terminal domain of STAT3 (1-475) in pFN11A (BIND) vector (human) (UniProt P40763); test: two-hybrid; CheckMate/Flexi Vector Mammalian Two-Hybrid System in 293T cells; STAT3 in pFN11A (BIND), Anxa2 in pFN10A (ACT), pGL4.31 reporter; relative Luc/Ren after 48 h
[6] = target: annexin A2 (Anxa2), endogenous (human (endogenous in T47D)) (UniProt P07355); test: co-IP; endogenous proteins in T47D lysate; cells serum-starved, with or without EGF for 72 h; precipitated with mouse anti-Anxa2 (protein G-agarose) or rabbit anti-STAT3 (protein A-agarose); normal IgG as negative control
[7] = target: Flag-tagged full length STAT3 (human) (UniProt P40763); test: co-IP; HEK293T co-transfected with Flag-tagged STAT3 and GFP-tagged Anxa2 constructs, 48 h; lysates incubated with anti-Flag beads at 4°C overnight; blots with anti-Flag or anti-GFP
[8] = target: STAT3, endogenous (human (endogenous in T47D)) (UniProt P40763); test: co-IP; endogenous proteins in T47D lysate; cells serum-starved, with or without EGF for 72 h; precipitated with mouse anti-Anxa2 (protein G-agarose) or rabbit anti-STAT3 (protein A-agarose); normal IgG as negative control

Protein sequences, listed by entry. Tags and fused reporters are not part of them. Lines headed by an entry give the natural chain unless they say otherwise; changes in a name come on top. Chains listed by the source or under a name are the forms on record and can include a tag or linker. Residues count along the entry.
UniProt P40763: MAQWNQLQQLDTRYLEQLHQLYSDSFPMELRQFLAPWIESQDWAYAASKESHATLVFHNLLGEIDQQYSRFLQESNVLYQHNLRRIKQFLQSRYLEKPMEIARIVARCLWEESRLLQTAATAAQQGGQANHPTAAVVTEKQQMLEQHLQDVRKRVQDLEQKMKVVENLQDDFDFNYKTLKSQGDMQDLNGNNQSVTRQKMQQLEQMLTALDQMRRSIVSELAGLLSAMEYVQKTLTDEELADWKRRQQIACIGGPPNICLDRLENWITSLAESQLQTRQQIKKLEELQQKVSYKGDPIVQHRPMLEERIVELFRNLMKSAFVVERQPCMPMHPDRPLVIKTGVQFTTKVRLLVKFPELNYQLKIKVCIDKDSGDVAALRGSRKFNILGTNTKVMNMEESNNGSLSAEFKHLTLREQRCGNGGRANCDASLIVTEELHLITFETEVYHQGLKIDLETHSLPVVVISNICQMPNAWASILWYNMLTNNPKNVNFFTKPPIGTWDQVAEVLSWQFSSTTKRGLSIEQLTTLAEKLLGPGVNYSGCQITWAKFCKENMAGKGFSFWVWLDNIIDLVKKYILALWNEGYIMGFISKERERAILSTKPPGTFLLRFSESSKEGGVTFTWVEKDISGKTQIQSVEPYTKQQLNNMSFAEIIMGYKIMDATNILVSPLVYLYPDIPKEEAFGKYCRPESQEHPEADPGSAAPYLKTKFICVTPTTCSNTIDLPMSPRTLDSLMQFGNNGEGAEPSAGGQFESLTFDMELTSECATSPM
Flag-tagged STAT3 N-terminus fragment 1-475aa: residues 1-475 of P40763
Flag-tagged STAT3 C-terminus fragment 476-770aa: residues 476-770 of P40763
UniProt P07355: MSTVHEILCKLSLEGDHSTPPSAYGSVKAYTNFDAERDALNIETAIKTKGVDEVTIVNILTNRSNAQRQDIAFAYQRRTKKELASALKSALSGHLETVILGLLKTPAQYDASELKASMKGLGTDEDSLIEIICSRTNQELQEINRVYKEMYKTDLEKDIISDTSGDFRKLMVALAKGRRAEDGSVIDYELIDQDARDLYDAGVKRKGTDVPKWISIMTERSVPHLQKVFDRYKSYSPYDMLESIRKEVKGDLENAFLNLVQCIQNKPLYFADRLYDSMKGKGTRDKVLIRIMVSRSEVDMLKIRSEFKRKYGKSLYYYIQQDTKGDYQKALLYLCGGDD

Substance | binding [1] | binding [3] | binding [4] | further results
full length Anxa2 in pFN10A (ACT) vector (from UniProt P07355 1-339) | binds |  |  | binding [2]: binds
GFP-tagged full length Anxa2 (from UniProt P07355 1-339) |  | binds | binds | 
C-terminal fragment of Anxa2 (93-339) in pFN10A (ACT) vector (from UniProt P07355 93-339) (domain or fragment) | binds |  |  | binding [5]: no binding
STAT3, endogenous (from UniProt P40763 1-770) |  |  |  | binding [6]: binds
GFP-tagged Anxa2 N-terminus fragment 1-92aa (from UniProt P07355 1-92) (domain or fragment) |  | binds | binds | binding [7]: binds
N-terminal fragment of Anxa2 (1-92) in pFN10A (ACT) vector (from UniProt P07355 1-92) (domain or fragment) | binds |  |  | binding [5]: binds
GFP-tagged Anxa2 C-terminus fragment 93-339aa (from UniProt P07355 93-339) (domain or fragment) |  | no binding | binds | binding [7]: binds
annexin A2 (Anxa2), endogenous (from UniProt P07355 1-339) |  |  |  | binding [8]: binds
